Results are given in words; binding and its absence hold for the method and conditions named. Some entries that bind do so weakly or less than the wild type.
What follows are binders tested against IGF1R (UniProt P08069) (assay: MRD identification, Example 48).

By UniProt entry, the sequences of proteins in these tests, tags left out. Residues count along the entry.
UniProt P08069, residues 31-932: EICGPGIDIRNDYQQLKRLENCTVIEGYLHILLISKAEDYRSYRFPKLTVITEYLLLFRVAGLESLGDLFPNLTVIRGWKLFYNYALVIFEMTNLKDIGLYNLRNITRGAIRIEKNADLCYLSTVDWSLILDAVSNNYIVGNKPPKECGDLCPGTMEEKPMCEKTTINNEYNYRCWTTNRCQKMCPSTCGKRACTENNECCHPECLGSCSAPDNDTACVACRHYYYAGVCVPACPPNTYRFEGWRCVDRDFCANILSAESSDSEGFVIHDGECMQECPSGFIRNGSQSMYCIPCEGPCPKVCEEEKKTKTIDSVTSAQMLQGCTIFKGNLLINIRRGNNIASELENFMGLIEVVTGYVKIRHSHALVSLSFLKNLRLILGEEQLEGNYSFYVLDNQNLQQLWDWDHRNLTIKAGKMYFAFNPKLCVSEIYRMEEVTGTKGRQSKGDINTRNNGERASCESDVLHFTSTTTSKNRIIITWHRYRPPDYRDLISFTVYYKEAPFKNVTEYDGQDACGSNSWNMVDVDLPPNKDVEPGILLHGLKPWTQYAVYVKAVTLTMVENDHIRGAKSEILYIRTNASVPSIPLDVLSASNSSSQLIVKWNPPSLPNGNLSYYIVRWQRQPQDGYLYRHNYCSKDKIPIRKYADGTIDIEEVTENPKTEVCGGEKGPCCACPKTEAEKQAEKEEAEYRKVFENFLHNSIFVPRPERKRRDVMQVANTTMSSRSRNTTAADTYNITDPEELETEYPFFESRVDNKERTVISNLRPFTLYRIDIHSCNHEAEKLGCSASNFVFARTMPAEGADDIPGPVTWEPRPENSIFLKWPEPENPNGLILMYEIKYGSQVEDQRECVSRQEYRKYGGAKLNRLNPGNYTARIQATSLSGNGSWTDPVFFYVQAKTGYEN

Binder	binding
RLTPQDLCFEFSELCF [IGF526]	binds
YFYWFQEMVM [IGF498]	binds
GFYEWFEMQL [IGF511]	binds
LCAEFAELCFEDTVRY [IGF521]	binds
EFYQGLERLV [IGF485]	binds
AHQLCIEFAELCFNDG [IGF426]	binds
PGLEIPQLCKEFPELCFTMDDDF [IGF522]	binds
LRPESIALCKEFPELCFEGWKSA [IGF533]	binds
YLSPDDMCYEFPELCF [IGF515]	binds
LSSYDVLCQEFSELCF [IGF527]	binds
LTSWELLCFEFEELCF [IGF518]	binds
PPLLCLEFPVLCFDSP [IGF427]	binds
MRVESLQLCKEFPELCFFSHGWT [IGF524]	binds
LCREFQELCF [IGF507]	binds
KTSQDMLCWEFEELCF [IGF516]	binds
FYQWFEKQLM [IGF500]	binds
GFYEWFEMQM [IGF514]	binds

The remaining lines, values ahead:

binding	Binder
binds	QSLDIPGLCKEFPELCFEMTGMR [IGF534]
binds	LVSPEDLCQEFVELCF [IGF519]
binds	ECDFYCGIYTL [IGF504]
binds	WYVDPPLCFEFPELCF [IGF520]
binds	PHALCLEFSELCFWSL [IGF428]
binds	FYEWFQAQLT [IGF512]
binds	YRALCFEFAELCFDEN [IGF431]
binds	VPHLCIEFAELCFEGT [IGF424]
binds	RMDLCREFTELCFTDS [IGF425]
binds	LCAEFRELCFHLPAQA [IGF523]
binds	VHQLCMEFEELCFGGA [IGF429]
binds	QTTPHILCLEFPELCF [IGF517]
binds	PHALCLEFHELCFDSN [IGF430]
binds	GPMEVHDLCKEFSELCF [IGF532]
binds	IPQLCLEFTDLCFEDT [IGF423]

These binders were tested against ErbB2 (UniProt P04626) (assay: MRD identification, Example 48).

Binder	binding
WDHWHIWHFG [EGB125]	binds
WKPWCKLYWRADPACLQIK [EGB354]	binds
TCHPSWGGKTCT [EGB104]	binds
MPWEYLHQHQ [EGB130]	binds
ICSRWPYWPHCWGQARQAAGGGSNCSHEPGSVVCL [EGB133]	binds
ICVAMTVTCS [EGB106]	binds
ICWIGTFGCA [EGB137]	binds
WSGWCMYTWGWAPCRSVD [EGB356]	binds
HCNWAPWWGYCMGQAGQGRCTAGGGSHCYWPPPNTRCW [EGB131]	binds
LCFAHQQAMFCN [EGB98]	binds
FCHLCQMFPAWCFLQT [EGB264]	binds
WCHFQIWHHPCY [EGB128]	binds
LVSFCPWGPDWYCSHYH [EGB224]	binds
RWVHCKQHGHYFSQRCIETW [EGB289]	binds
GSLGCVLPMVFCRSYQ [EGB249]	binds
PPYRCIPSESWICSFILGQA [EGB221]	binds
VAQSSAFCEEFPVHWYCSFYVG [EGB364]	binds
LCETQPVSFSCSGQACPGGGGGSLCQFWPHIDFCV [EGB127]	binds
VAQREKHCVPEWYCKHYM [EGB373]	binds
WCHLFPYSQWCH [EGB122]	binds

Results, then the binder that gave them:

binding	Binder
binds	ERALCHKPWSHIMPWCPQKL [EGB350]
binds	FCQFFPWTMVCQ [EGB129]
binds	QGGGCRGPHWYQMFYCVSPS [EGB222]
binds	YGKVLCSKWQCCKLLR [EGB263]
binds	SVFDCKYAPMWYCKHYL [EGB227]
binds	VAQSSEHCYFGWNSYHCWSQAG [EGB367]
binds	WNRICMYQWANHFTVCAPGP [EGB344]
binds	PPRWWCEHYGVQDLMCPGLF [EGB225]
binds	WCRYYSVVCS [EGB134]
binds	HTRKCHKFMFQHKHCIEVL [EGB315]
binds	LLFDCWRIPEWHACGKDY [EGB339]
binds	FCIHFPHSWVCH [EGB117]
binds	PCVFVIEGCF [EGB132]
binds	ICKYFPFSHFCW [EGB123]
binds	WSGWCVKQNAWYFCTGKI [EGB358]
binds	PRRWCHMDFHHSPMCHWHL [EGB310]
binds	YGKKCDKHDHSKPGVCIKKY [EGB335]
binds	EGB334 (peptide) peptide: MVVPCFTSQRQMAPACIAPRGQAGQGGPGCGRWLPRQRCFIKHGHMSESCMVSA

From US20160046678A1 (ZYNGENIA, published 2016)
